At least one compound was matched to its structure with a doubt left.
Test system: Mesenchymal stem cells
Test: Differentiation into neural cells, cellular morphology under a microscope
Type: cell-based, human
Conditions: additional treatment with 1 ug forskolin on top of lipoic acid, albumin, hydrocortisone, insulin
Description: Mesenchymal stem cells obtained from adipose tissue used in this Example were StemPro® Adipose-derived Stem Cells (Product No. R7788-110) purchased from Invitrogen. Frozen ampoules were thawed, and cells were washed with DMEM, centrifuged at 800 RPM for 5 minutes, and cultured in DMEM containing low glucose (1000 mg/L) and supplemented with 10% fetal bovine serum (FBS).
Mesenchymal stem cells were seeded in low glucose-Dulbecco's Modified Eagle's Medium (LG-DMEM) containing 10% fetal bovine serum (FBS) at a density of 5×10^3 cell/cm2. 24 hours after seeding, the medium was replaced with fresh DMEM/F-12 (1:1 mixed medium) supplemented with 1 uM hydrocortisone, […], 1% bovine serum albumin, and 0, 1, 2, 3, 4, 5 or 8 mM lipoic acid to induce differentiation into neural cells. Moreover, 1 uM forskolin was further added to promote differentiation into neural cells.

C=C[C@@]1(C)CC(=O)[C@]2(O)[C@@]3(C)[C@@H](O)CCC(C)(C)[C@@H]3[C@H](O)[C@H](OC(C)=O)[C@@]2(C)O1 [forskolin, 7 beta-acetoxy-8,13-epoxy-1 alpha, 6 beta, 9 alpha-trihydroxy-labd-14-ene-11-one]
rate of differentiation into neural cells: increased

Reference: patent US9499787B2, “Method for differentiating stem cells into neurons” (Dongguk University Industry-Academic Cooperation Foundation, priority 2012, dated 2016)
